Drawing on article PMC7083229, this text covers binding for four molecules.

Chains of the proteins cited; added tags and fusions are not shown.
UniProt Q6NZR5: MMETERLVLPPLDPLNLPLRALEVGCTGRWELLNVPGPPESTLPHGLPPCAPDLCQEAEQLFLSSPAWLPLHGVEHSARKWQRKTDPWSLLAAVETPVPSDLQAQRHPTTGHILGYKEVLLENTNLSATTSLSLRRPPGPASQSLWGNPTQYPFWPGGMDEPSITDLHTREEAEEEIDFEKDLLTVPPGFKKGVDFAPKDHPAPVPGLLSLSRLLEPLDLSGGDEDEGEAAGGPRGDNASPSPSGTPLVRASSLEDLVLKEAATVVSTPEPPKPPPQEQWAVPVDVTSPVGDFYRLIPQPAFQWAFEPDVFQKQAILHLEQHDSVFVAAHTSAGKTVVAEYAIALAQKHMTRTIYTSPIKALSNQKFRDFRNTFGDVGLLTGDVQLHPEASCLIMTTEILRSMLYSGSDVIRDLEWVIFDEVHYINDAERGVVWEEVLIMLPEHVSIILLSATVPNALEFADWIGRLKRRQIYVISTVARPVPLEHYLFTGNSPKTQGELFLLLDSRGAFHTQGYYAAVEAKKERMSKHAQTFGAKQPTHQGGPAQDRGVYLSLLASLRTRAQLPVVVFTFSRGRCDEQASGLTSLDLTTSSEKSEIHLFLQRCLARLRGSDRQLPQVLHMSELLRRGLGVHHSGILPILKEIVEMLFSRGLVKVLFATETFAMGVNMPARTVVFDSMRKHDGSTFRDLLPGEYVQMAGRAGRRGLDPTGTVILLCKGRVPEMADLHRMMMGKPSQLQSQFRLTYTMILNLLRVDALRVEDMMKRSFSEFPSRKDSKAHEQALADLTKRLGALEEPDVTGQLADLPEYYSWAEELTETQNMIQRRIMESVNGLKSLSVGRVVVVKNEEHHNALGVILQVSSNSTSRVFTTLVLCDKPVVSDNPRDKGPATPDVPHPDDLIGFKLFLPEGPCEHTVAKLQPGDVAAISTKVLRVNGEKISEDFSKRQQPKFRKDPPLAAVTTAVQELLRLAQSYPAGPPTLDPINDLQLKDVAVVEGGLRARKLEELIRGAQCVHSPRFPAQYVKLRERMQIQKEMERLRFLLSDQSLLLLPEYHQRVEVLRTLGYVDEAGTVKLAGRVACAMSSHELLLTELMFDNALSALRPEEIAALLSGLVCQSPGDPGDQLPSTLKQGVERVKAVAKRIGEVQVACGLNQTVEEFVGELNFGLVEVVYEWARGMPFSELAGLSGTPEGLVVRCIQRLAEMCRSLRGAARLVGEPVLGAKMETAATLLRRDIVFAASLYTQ
UniProt A2AKG8: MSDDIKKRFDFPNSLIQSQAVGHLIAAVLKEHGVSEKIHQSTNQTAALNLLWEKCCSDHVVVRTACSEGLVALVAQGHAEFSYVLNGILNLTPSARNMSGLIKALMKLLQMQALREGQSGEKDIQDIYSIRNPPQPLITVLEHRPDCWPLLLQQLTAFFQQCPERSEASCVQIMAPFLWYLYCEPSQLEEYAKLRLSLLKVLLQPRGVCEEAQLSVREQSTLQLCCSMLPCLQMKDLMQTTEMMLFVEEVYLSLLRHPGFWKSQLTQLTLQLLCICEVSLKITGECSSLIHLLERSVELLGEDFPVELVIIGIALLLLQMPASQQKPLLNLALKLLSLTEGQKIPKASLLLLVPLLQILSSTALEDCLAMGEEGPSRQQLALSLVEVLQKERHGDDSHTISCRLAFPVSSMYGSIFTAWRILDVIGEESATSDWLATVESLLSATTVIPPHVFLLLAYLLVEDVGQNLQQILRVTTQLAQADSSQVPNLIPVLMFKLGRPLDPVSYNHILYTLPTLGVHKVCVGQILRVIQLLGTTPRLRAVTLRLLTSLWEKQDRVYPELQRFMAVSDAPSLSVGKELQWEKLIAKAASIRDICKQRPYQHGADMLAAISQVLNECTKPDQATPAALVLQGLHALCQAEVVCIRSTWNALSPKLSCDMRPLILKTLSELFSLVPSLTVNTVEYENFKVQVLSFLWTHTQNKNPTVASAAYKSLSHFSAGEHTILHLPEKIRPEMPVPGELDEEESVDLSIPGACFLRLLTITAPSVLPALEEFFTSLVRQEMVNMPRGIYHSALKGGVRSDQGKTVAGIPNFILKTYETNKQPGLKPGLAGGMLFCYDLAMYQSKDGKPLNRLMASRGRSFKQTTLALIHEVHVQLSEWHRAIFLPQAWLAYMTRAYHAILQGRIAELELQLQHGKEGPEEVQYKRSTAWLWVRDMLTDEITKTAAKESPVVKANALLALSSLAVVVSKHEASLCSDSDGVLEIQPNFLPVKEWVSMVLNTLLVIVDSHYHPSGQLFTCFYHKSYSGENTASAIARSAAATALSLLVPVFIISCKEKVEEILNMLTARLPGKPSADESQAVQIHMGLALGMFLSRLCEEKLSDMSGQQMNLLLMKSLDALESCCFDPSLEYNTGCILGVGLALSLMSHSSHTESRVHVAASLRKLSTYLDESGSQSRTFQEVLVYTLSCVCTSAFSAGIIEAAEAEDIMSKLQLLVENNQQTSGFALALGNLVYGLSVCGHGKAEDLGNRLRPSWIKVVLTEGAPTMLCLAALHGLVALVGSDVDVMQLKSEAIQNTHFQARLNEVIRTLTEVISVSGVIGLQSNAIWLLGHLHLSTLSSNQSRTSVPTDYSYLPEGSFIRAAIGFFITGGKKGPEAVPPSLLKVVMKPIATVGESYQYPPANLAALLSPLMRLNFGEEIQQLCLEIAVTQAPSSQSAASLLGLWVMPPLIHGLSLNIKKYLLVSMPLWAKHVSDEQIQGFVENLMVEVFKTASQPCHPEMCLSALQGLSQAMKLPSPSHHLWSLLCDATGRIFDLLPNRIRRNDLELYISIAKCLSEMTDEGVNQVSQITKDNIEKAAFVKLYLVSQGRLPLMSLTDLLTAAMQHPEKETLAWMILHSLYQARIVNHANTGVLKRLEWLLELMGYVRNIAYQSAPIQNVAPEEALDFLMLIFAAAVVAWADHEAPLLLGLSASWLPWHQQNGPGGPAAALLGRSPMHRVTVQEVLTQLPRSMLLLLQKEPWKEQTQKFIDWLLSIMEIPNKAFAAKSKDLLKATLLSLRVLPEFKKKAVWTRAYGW

No constants are given. Whether binding was seen depends on the method and setting. Binding seen in cells or lysates may run through a third protein. Here binding means that the protein was enriched with, or labelled near, the bait; the list need not be complete. For some assays here: No binding means not detected with the bait. For some assays here: Where a sequence is shown, tags or fusion partners need not be part of it.

Assay [1] concerns the target T1, 3xFLAG-Avi-tagged AVEN (mouse (endogenous in mESCs)) (UniProt Q9D9K3).
T1 sequence (chain, biotin on the AviTag (BirA ligase expressed in the cells)): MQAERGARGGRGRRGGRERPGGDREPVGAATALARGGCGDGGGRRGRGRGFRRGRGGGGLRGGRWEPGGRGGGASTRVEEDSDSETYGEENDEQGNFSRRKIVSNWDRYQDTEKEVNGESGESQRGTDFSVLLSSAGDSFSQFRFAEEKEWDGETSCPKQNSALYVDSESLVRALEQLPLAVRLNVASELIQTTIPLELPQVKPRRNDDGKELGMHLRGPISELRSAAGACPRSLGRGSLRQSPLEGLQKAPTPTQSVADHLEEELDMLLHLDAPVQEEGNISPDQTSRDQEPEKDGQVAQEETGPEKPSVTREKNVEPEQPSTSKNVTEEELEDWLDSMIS
Put plainly: affinity purification with mass spectrometry; high-salt tandem FLAG-streptavidin purification of the 3xFLAG-Avi bait from mESC lysate; lysis buffer with 350 mM KCl, RNase treatment; untagged mESCs as control.

The target in assay [2] is 3xFLAG-Avi-tagged SKIV2L (mouse (endogenous in mESCs)) (UniProt Q6NZR5). Put plainly: affinity purification with mass spectrometry; tandem FLAG-streptavidin purification of the 3xFLAG-Avi bait from mESC lysate; 150 mM KCl, benzonase and RNase A; untagged mESCs as control; three technical replicates.
For assay [3], the target named is T1, 3xFLAG-Avi-tagged AVEN (mouse (endogenous in mESCs)). Put plainly: affinity purification with mass spectrometry; single-step streptavidin pull-down of the biotinylated 3xFLAG-Avi bait from total mESC lysate; 150 mM KCl, 0.5% NP-40, benzonase and RNase A; untagged mESCs as control; three technical replicates.
Assay [4] shares this target. Put plainly: condition: only higher salt concentration (350 mM KCl); affinity purification with mass spectrometry; high-salt tandem FLAG-streptavidin purification of the 3xFLAG-Avi bait from mESC lysate; lysis buffer with 350 mM KCl, RNase treatment; untagged mESCs as control.

With FOCAD (from UniProt A2AKG8 1-1798), the binding result in assay [1], in assay [2] and in assay [3] was “binds” each time.

Regarding TTC37 (mouse (endogenous in mESCs)), the values for the binding result in assay [3] and in assay [4] were “binds” and “no binding”, respectively.

On to “SKIV2L (from UniProt Q6NZR5 1-1244) (enzyme)”, for which the binding result in assay [3] is on record as “binds”; in assay [4], “no binding”.

B1: AVEN (protein, UniProt Q9D9K3 1-342)
chain: T1 sequence (chain, biotin on the AviTag (BirA ligase expressed in the cells))
As to B1, the binding entry in assay [2] is “binds”.
